Reference: PubChem BioAssay AID1347076 (National Center for Advancing Translational Sciences (NCATS), 2019)
The campaign covered roughly 400,000 compounds. About 13,000 (3.2%) were called active. Inconclusive means that the source gave no clear call. Such entries were picked first, then a sample of the others. Calls follow the shape of the dose curve; as a rule, active = well fitted cell-killing curve with a large enough effect; inconclusive = small, poorly fitted or top-dose-only effect, or effect the other way; inactive = flat fitted curve, though single readings scatter. A potency beside an inconclusive call is a rough fit, not a confirmed value.

Test: qHTS assay for MDR1-selective chemotherapeutics: Primary screen using the drug-selected MDR subline cells KB-V1; also: nearly all actives have a fitted effect of over 60% in size
Conditions: KB-V1 MDR cells viability, CellTiter-Glo, 72 h; activity change, negative = cytotoxicity: at 46.1 µM (top of the series)
Outline: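 KB-V1 MDR subline cells in DMEM (phenol-red free, 10% FBS) exposed to compounds in qHTS concentration series for 72 h at 37 degrees C. Viability read by CellTiter-Glo luminescence; concentration-effect curves fitted after normalization and correction.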
% is scaled to controls: 0 for no effect and ±100 for the full control effect; potency is read from the fitted curve at half-maximal effect.

SMILES	activity change, negative = cytotoxicity	Potency
COc1ccc(C(=O)CCC(=O)N2CCN(c3cc(C)ccc3C)CC2)cc1	inactive: -5.33%	–
CCCCNC(=O)C1(C)CCCCN1C(=O)c1cc(-c2ccccc2)cs1 (stereo not given)	–	inconclusive: 5.8 µM [cytotoxic, full curve]
COc1ccc(C/C(O)=C(\C#N)c2nc3ccccc3[nH]2)cc1OC	inactive: 5.46%	–
Cc1ccc(-c2nc(C)c(CCNS(=O)(=O)c3ccccc3F)s2)cc1	–	inconclusive: 14.6 µM [cytotoxic, partial curve, poor fit]
Cc1cc(C)nc(SCc2nnc(SCC#N)n2-c2cccc(Cl)c2)n1	–	inconclusive: 20.6 µM [cytotoxic, single point]
COc1ccc(-c2nc(-c3cccnc3)no2)cc1OC	inactive: -11.6%	–
CN(C)CC/C=C1\c2ccc(F)cc2Sc2cc(F)c(Cl)cc21	inactive: -19.7%	–
S=C(NCC1CCCO1)N1CCN(c2ccc(Cl)c(Cl)c2)CC1 (stereo not given)	–	active: 7.31 µM
O=C1N(CN2CCC3(CC2)OCCO3)c2ccccc2C12OCCCO2	–	inconclusive: 20.6 µM [rising, single point]
CCOC(=O)Cn1nc(C)c(NC(=O)COc2cccc(Cl)c2)c1C	–	inconclusive: 20.6 µM [cytotoxic, partial curve]
COc1ccc(-c2ccc3c(c2)C2CC3CCN2C(=O)OCc2ccccc2)cc1 (stereo not given)	–	inconclusive: 18.4 µM [cytotoxic, single point]
O=C(CN1CCN(S(=O)(=O)c2ccccc2[N+](=O)[O-])CC1)Nc1ccc(N2CCOCC2)cc1	–	inconclusive: 14.6 µM [cytotoxic, single point]
CCc1cccc2c(C(=O)COC(=O)[C@@H]3CC(O)CN3S(=O)(=O)c3ccccc3[N+](=O)[O-])c[nH]c12 (stereo not given in full)	–	inconclusive: 20.6 µM [cytotoxic, single point]
S=C(NCc1ccc(Cl)cc1)Nc1ccc(Cl)cc1Cl	inactive: -4.04%	–
CS(=O)(=O)Nc1ccc(C2=NN(C(=O)C3CCCCC3)C(c3cccs3)C2)cc1 (stereo not given)	–	inconclusive: 20.6 µM [cytotoxic, partial curve, poor fit]
Cc1cc(SCC(=O)Nc2cccc(S(=O)(=O)NC3=NCCCCC3)c2)nc2ccccc12	–	inconclusive: 1.84 µM [cytotoxic, partial curve, poor fit]
COc1ccc2[nH]cc(CCNC(=O)c3ccc4ccccc4n3)c2c1	inactive: 13.6%	–
O=C(CS(=O)(=O)Cc1ccccc1)N1CCN(c2ccccc2F)CC1	–	inconclusive: 16.4 µM [cytotoxic, single point]
CC(C)(C)c1cc(NC(=O)Nc2ccccc2)no1	–	inconclusive: 1.46 µM [cytotoxic, full curve]
Cc1cccc[n+]1CC(=O)Nc1ccc([N+](=O)[O-])cc1	–	inconclusive: 20.6 µM [rising, single point]
COc1cc(NS(C)(=O)=O)ccc1Nc1c2ccccc2nc2ccccc12	–	active: 18.4 µM
CN(C)c1cccc(C(=O)OCC(=O)N2CCc3ccccc3C2)c1	inactive: -19.5%	–
COc1ccc(C(CC(=O)c2ccc(C)cc2)Sc2ccccc2N)cc1 (stereo not given)	inactive: 0.88%	–
N#Cc1ccc(OS(=O)(=O)c2ccc(-c3ccon3)s2)cc1	inactive: -8.91%	–

SMILES	activity change, negative = cytotoxicity	Potency
Fc1cccc(COc2ccccc2C(=S)N2CCCC2)c1	–	inconclusive: 20.6 µM [cytotoxic, single point]
CCOc1ccc(NC(=O)Cn2cc(C(=O)c3ccc(C)c(C)c3)c(=O)c3cc4c(cc32)OCCO4)cc1	–	inconclusive: 16.4 µM [rising, single point]
Brc1ccc2nc(-c3ccco3)c(CC3CCCCC3)n2c1	inactive: 14.4%	–
C[C@@H]1CN([C@H](C)CO)C(=O)CCCn2nncc2CO[C@H]1CN(C)C(=O)Cc1ccccc1	inactive: 10.7%	–
CCOC(=O)C(C#N)(Cc1cc(OC)cc(OC)c1)Cc1cc(OC)cc(OC)c1	inactive: -11%	–
COc1ccc(CNC(=O)Cn2c(SCC(=O)Nc3ccc(C)c(C)c3)nc3ccccc32)cc1	inactive: -24.2%	–
COc1cc(/C=N/NC(=O)COc2cc(C)cc(C)c2)ccc1OS(=O)(=O)c1ccc(C)cc1	inactive: -18.9%	–
Cc1ccc2oc3ccccc3c(=O)c2c1	inactive: 0%	–
Cc1cc(C)cc(NC(=O)CSc2nc(-c3cccc(Cl)c3)nc3c2Cc2c(CO)cnc(C)c2O3)c1	inactive: 6.7%	–
CCc1ccc(-n2nc(C)c3c(C(=O)Nc4cc(OC)cc(OC)c4)cc(C)nc32)cc1	inactive: -18.6%	–
CC(c1ccco1)N(C(=O)c1ccc(F)cc1)c1ccccn1 (stereo not given)	inactive: -0.323%	–
Cc1c(C(=O)NCc2cccc(Cl)c2)sc(=O)n1Cc1ccc(F)cc1	–	inconclusive: 18.4 µM [cytotoxic, single point]
Cc1nn(-c2ccccc2)c(Cl)c1C(=O)OC(C)C(=O)Nc1ccc2c(c1)OCO2 (stereo not given)	inactive: 0.502%	–
Cc1ccccc1CN(C)CC(=O)NC(C)CCc1ccccc1 (stereo not given)	–	inconclusive: 9.2 µM [cytotoxic, partial curve]
CCN(CC)S(=O)(=O)c1cccc(-c2nn(-c3ccccc3)cc2/C=C(\C#N)C(=O)NCc2ccco2)c1	–	inconclusive: 2.31 µM [cytotoxic, full curve]
Cc1cc(C)c(OCCCCN2CCC(C)CC2)c(Br)c1	–	inconclusive: 16.4 µM [cytotoxic, single point]
CCC(C(=O)NC1CCCC1)N(Cc1ccc2c(c1)OCO2)C(=O)c1snc(C(N)=O)c1N (stereo not given)	inactive: 0%	–
CCOc1ccc(NC(=O)CSc2nnc(C3CC3)n2C)cc1S(=O)(=O)N1CCCCC1	–	inconclusive: 32.6 µM [rising, single point]
O=C(c1ccco1)N1CCN(C(c2ccc(F)cc2)c2nnnn2Cc2cccs2)CC1 (stereo not given)	–	inconclusive: 20.6 µM [cytotoxic, partial curve, poor fit]
CN(C(=O)CSc1nc(C2CC2)nc2ccccc12)c1nc(-c2ccccc2)cs1	–	inconclusive: 9.2 µM [cytotoxic, partial curve, poor fit]
COc1ccc(C(=O)N(Cc2ccccc2)Cc2cc3cc4c(cc3[nH]c2=O)OCCO4)cc1	–	active: 11.2 µM
Cn1c(=O)[nH]c(=O)c2c1nc(N1CCCC1)n2CCCSc1nc2ccccc2o1	inactive: -18.2%	–
COCCNc1nc(NCCOc2ccccc2Cl)c2sccc2n1	–	inconclusive: 2.31 µM [cytotoxic, full curve, poor fit]
CC(C)(C)OC(=O)N1CCC[C@H]1c1nnc(SC/C=C/c2ccccc2)o1	inactive: -13.8%	–

SMILES	activity change, negative = cytotoxicity	Potency
O=C(/C=C/c1ccco1)Nc1ccc(Cl)c(S(=O)(=O)N2CCOCC2)c1	–	inconclusive: 3.26 µM [cytotoxic, full curve]
Cc1ccc(-n2[nH]c(C)c(C=Nc3ccc4[nH]c(=O)[nH]c4c3)c2=O)cc1C	–	inconclusive: 2.59 µM [cytotoxic, full curve, poor fit]
COc1cc(OC)cc(C(=O)NC2CCN(C(=O)N3c4ccccc4Sc4ccccc43)CC2)c1	–	inconclusive: 14.6 µM [cytotoxic, partial curve]
CC(=O)c1ccc(C(=O)N2CCCC(N3CCN(c4ccc(F)cc4)CC3)C2)s1 (stereo not given)	–	inconclusive: 8.2 µM [cytotoxic, partial curve, poor fit]
O=C(O)c1ccc(S(=O)(=O)/N=C2\C=C(Nc3ccccc3F)C(=O)c3ccccc32)cc1	–	inconclusive: 29.1 µM [cytotoxic, single point]
O=C(NC1CCCc2ccccc21)C1CCN(c2c3c(nc4ncnn24)CCC3)CC1 (stereo not given)	–	active: 20.6 µM
Cc1cc(Br)ccc1NC(=O)c1cnc(N2CCN(c3ccccn3)CC2)c2ccccc12	–	inconclusive: 20.6 µM [cytotoxic, single point]
Cc1ccc(-n2nnnc2-c2cnc(-c3cccnc3)nc2C(F)(F)F)cc1	–	active: 20.6 µM
CCn1c(CNc2ccc(Cl)cc2)nnc1SCc1ccc(Cl)cc1	–	inconclusive: 29.1 µM [cytotoxic, single point]
COc1ccc([N+](=O)[O-])cc1NC(=O)CCN1CCN(c2ccccc2)CC1	–	inconclusive: 20.6 µM [cytotoxic, single point]
CC(C)C[C@@H]1COc2cc(N3CCSCC3)ccc2S(=O)(=O)N1	–	inconclusive: 14.6 µM [cytotoxic, single point]
CCCNC(=O)C(Cc1ccccc1)NC(=O)Cc1ccccc1 (stereo not given)	–	inconclusive: 23.1 µM [cytotoxic, partial curve, poor fit]
Cc1ccc(O)c(-c2cc(-c3cccc(F)c3)n[nH]2)c1	–	inconclusive: 20.6 µM [cytotoxic, partial curve, poor fit]
Cc1c(C(=O)N2CCC[C@H]2CO)oc2c(F)cccc12	inactive: -13.6%	–
CN(C)Cc1c(OC(=O)c2ccc(N)cc2)ccc2ccccc12	inactive: -4.44%	–
Cc1ccc2cc(CN(CCCO)S(=O)(=O)c3cccc4nsnc34)c(=O)[nH]c2c1	inactive: -32.2%	–
O=C(C[C@H]1C[C@H](C(=O)N2CCOCC2)[C@@]2(CCC3CCCC3)c3[nH]c4ccc(Cl)cc4c3CCN2C1=O)NCc1ccco1	–	inconclusive: 29.1 µM [cytotoxic, single point]
Cc1cc(C)n2cc(CSc3nc4ccccc4s3)nc2n1	–	inconclusive: 18.4 µM [cytotoxic, single point]
O=S(=O)(NCCc1nc2ccccc2[nH]1)c1ccccc1	–	inconclusive: 16.4 µM [rising, partial curve, poor fit]
CC(C)C(C(=O)Nc1nccs1)c1ccc(Cl)cc1 (stereo not given)	–	inconclusive: 20.6 µM [cytotoxic, single point]
Cc1ccc(N(C)C(=O)c2cnc(N3CCOCC3)c3ccccc23)cc1C	inactive: 13.4%	–
Oc1c(Br)cc2oc3c(c2c1CNCc1ccccc1)CCCC3	–	inconclusive: 0.562 µM [cytotoxic, full curve]

Pulled by structure from the list above:
SMILES	activity change, negative = cytotoxicity	Potency
COc1ccc([N+](=O)[O-])cc1NC(=O)CCN1CCN(c2ccccc2)CC1	–	inconclusive: 20.6 µM [cytotoxic, single point]
Cc1cc(Br)ccc1NC(=O)c1cnc(N2CCN(c3ccccn3)CC2)c2ccccc12	–	inconclusive: 20.6 µM [cytotoxic, single point]
